Data as given in PubChem BioAssay AID493246 (Drosophila RNAi Screening Center, 2011).

Test: 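Genome-wide search for dsRNAs that reduce cell number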 (primary screen)
System: Drosophila Kc and S2R+ cells
Reagents: long dsRNA against Drosophila genes
Read-out: 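Cell number per well after knock-down, printed as raw plate values; calls were based on per-plate z-scores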
Reading the numbers: Kc cell number and S2R+ cell number: higher = more cells remaining
Rule for the call: 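Active when the per-plate z-score of cell number is 3 or more in the direction of fewer cells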
The screen tested about 21,000 reagents; this is an unselected part of those with a known target gene and a result. Over the whole deposit, 429 (2%) were called active. 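Values are raw and not normalised between plates; calls rest on per-plate z-scores that were not deposited.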 The record does not give: the amount of reagent, the time to read-out.

With knock-down of Eaf6 [DRSC09901] the results were Kc cell number, rep 1 = 1.33e6; Kc cell number, rep 2 = 1.16e6; S2R+ cell number, rep 1 = 1.22e6; S2R+ cell number, rep 2 = 1.26e6; inactive. CG10477 [DRSC09732] showed Kc cell number, rep 1 = 1.61e6; Kc cell number, rep 2 = 1.59e6; S2R+ cell number, rep 1 = 1.06e6; S2R+ cell number, rep 2 = 1.10e6; inactive. Against CG10694 [DRSC14263] the deposit lists Kc cell number, rep 1 = 1.51e6; Kc cell number, rep 2 = 1.57e6; S2R+ cell number, rep 1 = 1.00e6; S2R+ cell number, rep 2 = 1.10e6; inactive. Knock-down of path [DRSC10361] came out at: Kc cell number, rep 1 = 1.52e6; Kc cell number, rep 2 = 1.55e6; S2R+ cell number, rep 1 = 1.17e6; S2R+ cell number, rep 2 = 1.34e6; inactive. After knock-down of CG5805 [DRSC15878], the record shows Kc cell number, rep 1 = 1.59e6; Kc cell number, rep 2 = 1.67e6; S2R+ cell number, rep 1 = 1.00e6; S2R+ cell number, rep 2 = 1.13e6; inactive. With knock-down of Jig [DRSC14974] the results were Kc cell number, rep 1 = 1.40e6; Kc cell number, rep 2 = 1.49e6; S2R+ cell number, rep 1 = 1.22e6; S2R+ cell number, rep 2 = 1.32e6; inactive.

Alas [DRSC04044] scored Kc cell number, rep 1 = 1.30e6; Kc cell number, rep 2 = 1.39e6; S2R+ cell number, rep 1 = 1.06e6; S2R+ cell number, rep 2 = 1.12e6; inactive. Against CG15719 [DRSC19685], the values are Kc cell number, rep 1 = 1.57e6; Kc cell number, rep 2 = 1.68e6; S2R+ cell number, rep 1 = 1.02e6; S2R+ cell number, rep 2 = 1.18e6; inactive. With knock-down of Polr2C [DRSC03415], the record shows Kc cell number, rep 1 = 1.45e6; Kc cell number, rep 2 = 1.48e6; S2R+ cell number, rep 1 = 1.10e6; S2R+ cell number, rep 2 = 1.22e6; inactive.

2 entries from above, ordered by “S2R+ cell number, rep 1”, low to high.
CG10477 [DRSC09732] — Kc cell number, rep 1: 1.61e6; Kc cell number, rep 2: 1.59e6; S2R+ cell number, rep 1: 1.06e6; S2R+ cell number, rep 2: 1.10e6; Call: inactive
Eaf6 [DRSC09901] — Kc cell number, rep 1: 1.33e6; Kc cell number, rep 2: 1.16e6; S2R+ cell number, rep 1: 1.22e6; S2R+ cell number, rep 2: 1.26e6; Call: inactive

Further entries follow:
Against CG3631 [DRSC15503], the values are Kc cell number, rep 1 = 1.78e6; Kc cell number, rep 2 = 1.98e6; S2R+ cell number, rep 1 = 1.49e6; S2R+ cell number, rep 2 = 1.54e6; inactive. Silencing of DCTN5-p25 [DRSC03525] came out at: Kc cell number, rep 1 = 1.50e6; Kc cell number, rep 2 = 1.61e6; S2R+ cell number, rep 1 = 1.17e6; S2R+ cell number, rep 2 = 1.25e6; inactive. CG14219 [DRSC19576] gave Kc cell number, rep 1 = 1.60e6; Kc cell number, rep 2 = 1.64e6; S2R+ cell number, rep 1 = 1.14e6; S2R+ cell number, rep 2 = 1.29e6; inactive. Knock-down of dos [DRSC07992] resulted in: Kc cell number, rep 1 = 1.05e6; Kc cell number, rep 2 = 9.47e5; S2R+ cell number, rep 1 = 8.24e5; S2R+ cell number, rep 2 = 9.64e5; active. After knock-down of dos [DRSC08713] the results were Kc cell number, rep 1 = 1.40e6; Kc cell number, rep 2 = 1.26e6; S2R+ cell number, rep 1 = 1.06e6; S2R+ cell number, rep 2 = 1.29e6; inactive. CenB1A [DRSC16923] scored Kc cell number, rep 1 = 1.71e6; Kc cell number, rep 2 = 1.62e6; S2R+ cell number, rep 1 = 1.07e6; S2R+ cell number, rep 2 = 1.20e6; inactive.

Knock-down of CG4151 [DRSC18351] resulted in: Kc cell number, rep 1 = 1.50e6; Kc cell number, rep 2 = 1.49e6; S2R+ cell number, rep 1 = 1.02e6; S2R+ cell number, rep 2 = 1.17e6; inactive. Depletion of CG7857 [DRSC10925] resulted in: Kc cell number, rep 1 = 1.48e6; Kc cell number, rep 2 = 1.48e6; S2R+ cell number, rep 1 = 1.35e6; S2R+ cell number, rep 2 = 1.38e6; inactive. Depletion of cactin [DRSC20576] came out at: Kc cell number, rep 1 = 1.45e6; Kc cell number, rep 2 = 1.51e6; S2R+ cell number, rep 1 = 8.26e5; S2R+ cell number, rep 2 = 9.42e5; inactive. With knock-down of CG31624 [DRSC02617], the screen gave Kc cell number, rep 1 = 1.66e6; Kc cell number, rep 2 = 1.70e6; S2R+ cell number, rep 1 = 1.03e6; S2R+ cell number, rep 2 = 1.07e6; inactive. After knock-down of CG9106 [DRSC20154] the results were Kc cell number, rep 1 = 5.92e5; S2R+ cell number, rep 1 = 9.17e5; inactive. For Dop2R [DRSC20683], the entry reads Kc cell number, rep 1 = 1.55e6; Kc cell number, rep 2 = 1.55e6; S2R+ cell number, rep 1 = 1.11e6; S2R+ cell number, rep 2 = 1.21e6; inactive.

Dop2R [DRSC20686] gave Kc cell number, rep 1 = 1.64e6; Kc cell number, rep 2 = 1.67e6; S2R+ cell number, rep 1 = 1.15e6; S2R+ cell number, rep 2 = 1.25e6; inactive.
